Here are results for 18 molecules from publication PMC10163288.

The list shows a part of the results.

B1: il10ra_site1_sap_15_mot_HHH_b2_07442_000000239_0001_40_54_H_._HHH_b1_00124_0001_0000300024_0000001_0_0001_1 (protein)
chain: SSSSDEEQSEALRHFLEHLIEAGNKRMLEFAVEFARHAAEVLGDEELKRVIEEAEEFLERGSSSS
B2: il10ra_site1_sap_17_mot_HHH_b1_06786_000000000_0001_1_20_H_._HHH_b2_02987_0001_0000200019_0000001_0_0001 (protein)
chain: SSSSFHEVWRLSREIMEAIREGDEERVRELLEQLEELLEETGDPMVEYLLRVLRLAFEHTFSSSS
B3: il10ra_site1_normal_mot_HHH_b1_04940_000000219_0001_1_18_H_._HHH_b1_01947_0001_0000200016_0000002_0 (protein)
chain: SSSSDEEERRYARLALRFARWLAEAGDHEAVRRFFESVEDAAEQLNDPEIEEILEEIEELLSSSS
B4: il10ra_site1_sap_19_mot_HHH_b1_02881_000000046_0001_1_20_H_._HHH_b2_01166_0001_0000200017_0000001_0_0001 (protein)
chain: SSSSDEEQEELFRLLEELAELAHEGDEEKVEKLTEEVEELARELGNPLFEWQARWLLRRLSSSSS
B5: il10ra_site1_normal_mot_HHH_b2_00984_000000042_0001_1_20_H_._HHH_b1_07343_0001_0000300015_0000001_0 (protein)
chain: SSSSNEEFLRLAQEAVQLAIRLNDPEALQQIWELIKRYAEEGDPRLEEELEELVEELRERGSSSS
B6: il10ra_site1_sap_23_mot_HHH_b2_05343_000000235_0001_19_35_H_._HHH_b2_03978_af2_0001_0000200014_0000001_0_0001 (protein)
chain: SSSSDEEEERKEELEKEIERLEEEGDPRRAAKLLAELIALAFELSDEELLQEAWRIALENSSSSS
B7: il10ra_site1_sap_16_mot_HHH_b2_00564_af2_000000012_0001_18_34_H_._HHH_b1_08052_af2_0001_0000300017_0000001_1_0001 (protein)
chain: SSSSTEEVEELLVEAMELRLEGNPEEAEEVLREALELAREEGNRAAVYLIRQALKALELLSSSSS
B8: il10ra_site1_sap_18_mot_HHH_b1_03900_000000129_0001_1_16_H_._HHH_b1_06046_af2_0001_0000100005_0000002_0_0001_af2pred_0001 (protein)
chain: SSSSSDEEVRERIEELLEEAEQISDEREAAHALFKASRLALELGDKEIARAVDEVAIKLNSSSSS
B9: il10ra_site1_normal_mot_HHH_b2_02933_000000199_0001_1_19_H_._HHH_b1_07434_af2_0001_0000200008_0000001_0_af2pred_dldesign_0_af2pred (protein)
chain: SSSSSSSPREEVLRLIEEASELEDKEKAKEVLEKALELAQELKDELLIDAVQYRLKQISSSSSSS
B10: il10ra_site1_normal_mot_HHH_b1_02809_af2_000000277_0001_40_57_H_._HHH_b1_00768_af2_0001_0000200008_0000001_0 (protein)
chain: SSSSSSDANETAARLIRAAYRGDEELFEELREELEELIERYGDPRLRLALQFAEALFRELSSSSS
B11: il10ra_site1_normal_mot_HHH_b2_03801_000000188_0001_20_36_H_._HHH_b1_01557_0001_0000400022_0000001_0_af2pred_0001 (protein)
chain: SSSSSDRETAERSAKFLLEAAKQLDDDEAVKLTLRAARFTAESVNDEELKEEIEKVIEELSSSSS
B12: il10ra_site1_normal_mot_HHH_b2_04327_000000030_0001_41_55_H_._HHH_b1_05082_0001_0000600034_0000001_0 (protein)
chain: SSSSSEEEEVEELLEEAKQIPDPKEVSRLLAEAVRIAMRAGNEELFEEIWRVAMEIFRRLSSSSS
B13: il10ra_site1_sap_18_mot_HHH_b2_07873_af2_000000172_0001_1_19_H_._HHH_b2_06273_0001_0000100003_0000001_0_0001 (protein)
chain: SSSSEEAFEEVKRLIEEIAQLLEEGDEEKVEELLKELRELAEERNDPIIRHVVELLEKALKSSSS
B14: il10ra_site1_sap_26_mot_HHH_b1_03333_000000091_0001_1_17_H_._HHH_b1_01909_0001_0000300036_0000001_0_0001 (protein)
chain: SSSSDEESRRIMELMRRVSELDQNGNPEEAREVLEEARQLAEEAGNQLLRLQIEYLERLLNSSSS
B15: il10ra_site1_normal_mot_HHH_b1_06994_000000193_0001_40_55_H_._HHH_b1_03437_0001_0000400021_0000002_0 (protein)
chain: SSSSSDEEELVEAALRLAEQVYEAGDPESAKLLLWAAEFLAREIGDEELRELVEEVEEKISSSSS
B16: il10ra_site1_normal_mot_HHH_b2_02337_000000026_0001_38_52_H_._HHH_b1_02776_0001_0000100001_0000001_1 (protein)
chain: SSSSDLEEEIEELLKELEELIKEGDQERISELAQRILRLIAEAQNAELLRRLWELVQAFYSSSSS
B17: il10ra_site1_sap_18_mot_HHH_b1_03859_af2_000000004_0001_44_57_H_._HHH_b2_00424_0001_0000200006_0000001_0_0001_af2pred_dldesign_0_af2pred (protein)
chain: SSSSPEVEARLAEAEKRLEELKEKDDLKAKAALAQEIFDMALETGDPRIQALLQKALAMLKSSSS
B18: il10ra_site1_sap_19_mot_HHH_b2_01205_000000166_0001_1_19_H_._HHH_b1_07939_0001_0000100003_0000002_0_0001 (protein)
chain: SSSSSEEEIEELLKRLEELIREGDTEEAYKLIRRIAELIHELGNDELAKELLRLLRALMRSSSSS

This assay deals with il10ra, Q13651. Briefly: yeast display titration.
Regarding B1, the “apparent Kd” value was “inactive: no binding seen”.

B2: the “apparent Kd” value was “inactive: no binding seen”.

As to B3, the “apparent Kd” value was “inactive: no binding seen”.

As to B4, the “apparent Kd” value is “inactive: no binding seen”.

As for B5, the “apparent Kd” value is “inactive: no binding seen”.

Take B6: the “apparent Kd” value was “inactive: no binding seen”.

With B7, the “apparent Kd” value was “inactive: no binding seen”.

As for B8, the “apparent Kd” value was “inactive: no binding seen”.

Turning to B9, the “apparent Kd” value is “inactive: no binding seen”.

Turning to B10, the “apparent Kd” value was “inactive: no binding seen”.

Regarding B11, the “apparent Kd” value is “inactive: no binding seen”.

For the molecule B12, the “apparent Kd” value was “inactive: no binding seen”.

With B13, the “apparent Kd” value is “inactive: no binding seen”.

For the molecule B14, the “apparent Kd” value is “inactive: no binding seen”.

For B15, the “apparent Kd” value was “inactive: no binding seen”.

Consider B16, for which the “apparent Kd” value was “inactive: no binding seen”.

Consider B17, for which the “apparent Kd” value is “inactive: no binding seen”.

As to B18, the “apparent Kd” value was “inactive: no binding seen”.
